The target in assay [1] is YOD1, endogenous (cell line not named, Fig. 3E, F) (human) (UniProt Q5VVQ6). In words: co-IP; endogenous proteins; cell lysate with anti-YOD1 or anti-ZNF24 antibody on Protein A/G magnetic beads, 4 °C overnight, PBST washes, Western blot.
Assay [2] deals with full-length Flag-YOD1 (human) (UniProt Q5VVQ6). In words: co-IP; one tagged protein or truncation overexpressed alone in HEK-293T, endogenous partner; immunoprecipitation with antibodies against the endogenous protein (ZNF24, YOD1) or against the tag (Flag, Myc).
Assay [3] shares this target. In words: co-IP; Flag- and Myc-tagged proteins cotransfected (HEK-293T); lysates immunoprecipitated with anti-Flag or anti-Myc antibodies, Western blot.

Amino acid sequences for entries named in this document (tags omitted).
UniProt Q5VVQ6: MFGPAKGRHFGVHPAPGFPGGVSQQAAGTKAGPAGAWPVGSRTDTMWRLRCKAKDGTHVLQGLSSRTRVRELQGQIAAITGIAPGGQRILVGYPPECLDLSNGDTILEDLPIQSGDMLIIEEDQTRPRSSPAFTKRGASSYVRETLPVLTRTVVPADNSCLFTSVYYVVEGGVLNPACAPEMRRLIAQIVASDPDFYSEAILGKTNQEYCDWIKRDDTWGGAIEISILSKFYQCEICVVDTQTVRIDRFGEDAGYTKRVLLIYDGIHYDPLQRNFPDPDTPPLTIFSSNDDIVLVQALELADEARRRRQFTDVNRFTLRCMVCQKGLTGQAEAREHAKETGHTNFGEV
UniProt P17028: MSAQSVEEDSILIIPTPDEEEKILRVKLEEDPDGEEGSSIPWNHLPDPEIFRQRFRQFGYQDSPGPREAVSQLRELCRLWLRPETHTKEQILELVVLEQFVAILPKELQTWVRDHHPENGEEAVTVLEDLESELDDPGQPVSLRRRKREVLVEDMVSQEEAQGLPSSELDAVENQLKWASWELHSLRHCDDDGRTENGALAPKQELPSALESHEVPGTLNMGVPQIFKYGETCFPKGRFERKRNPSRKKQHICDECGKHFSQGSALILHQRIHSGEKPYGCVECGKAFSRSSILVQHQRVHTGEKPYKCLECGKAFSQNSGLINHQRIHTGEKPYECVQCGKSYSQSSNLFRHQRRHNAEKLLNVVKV

This is an account of results in PMC12022293.

Results are given in words; binding and its absence hold for the method and conditions named. In cells and extracts the contact can be indirect. Some results given as binding are weak or reduced against the parent protein; the word gives no strength.

Take “ZNF24, endogenous (cell line not named, Fig. 3E, F) (from UniProt P17028 1-368)”: the binding result in assay [1] is “binds”.
In the case of “ZNF24, endogenous in HEK-293T cells (from UniProt P17028 1-368)”, the binding entry in assay [2] was “binds”.
In the case of “full-length Myc-ZNF24 (from UniProt P17028 1-368)”, in assay [3], the binding entry is listed as “binds”.
